Measured values reported in patent publication US11596150B2, “Long chain glycolipids useful to avoid perishing or microbial contamination of materials” (IMD NATURAL SOLUTIONS GMBH, priority 2011, dated 2023).
“Also recorded” adds a separate entry of the source. For at least one compound, name, drawing or mass did not settle the structure. Some compounds share one wording; it may come from a single statement.

Test system: various microorganisms
Experiment: MIC after 48 h of pure compounds and mixture [X8] against various microorganisms (Example 9)
Type: cell-based
Details: summary in words of own investigations / Tables 25-27

Q: How did the “antimicrobial activity in comparison with other compounds of formula I” value (“antimicrobial activity in comparison” below) turn out when `CCCCC(CCCC(O)C(O)CCCCCCCCCCCCCCC(O)C(=O)O)OC1OCC(O)C(O)C1OC1OCC(O)C(O)C1OC1OC(COC(=O)CC(C)C)C(OC(C)=O)C(O)C1O` (stereo not shown) [[13]] was run?
A: Its value is “stronger antimicrobial activity”.

Q: For `CCCCC(CCCC(O)C(O)CCCCCCCCCCCCCCC(O)C(=O)O)OC1OCC(O)C(O)C1OC1OCC(OC(C)=O)C(O)C1OC1OC(COC(=O)CC(C)C)C(O)C(O)C1O` (stereo not shown) [[1], 2,17,18-trihydroxy-hexacosanoic acid 22-O-[6-isovaleroyl-hexapyranosyl-(1→2)-5-acetyl-pentapyranosyl-(1→2)-penta-pyranosid]-], which “antimicrobial activity in comparison” value is on record?
A: The value was “stronger antimicrobial activity”.

Q: `CCCCC(CCCC(O)C(O)CCCCCCCCCCCCCCC(O)C(=O)O)OC1OCC(O)C(O)C1OC1OCC(O)C(O)C1OC1OC(CO)C(O)C(O)C1O` (stereo not shown) [[16], Glykenin DGC or Glykenin DGB] was tested. Which “antimicrobial activity in comparison” value did it give?
A: The value was “significantly inferior antimicrobial activities; also recorded: significantly weaker antimicrobial activity”.

Q: For `CCCCC(CCCC(O)C(O)CCCCCCCCCCCCCCC(O)C(=O)O)OC1OCC(O)C(O)C1OC1OCC(O)C(O)C1OC1OC(COC(=O)CC(C)C)C(O)C(O)C1O` (stereo not shown) [[12]], which “antimicrobial activity in comparison” value is on record?
A: Its value is “stronger antimicrobial activity”.
